No constants are given. Whether binding was seen depends on the method and setting. For some assays here: Binding seen in cells or lysates may run through a third protein. Some binding calls cover weakened binding; strength is not graded here. For some assays here: Sequences can lack the tags named with a protein.

Amino acid sequences for entries named in this document (tags omitted). A change or cut given only in a name is not applied to a line headed by its entry. Residues count along the entry.
UniProt Q9Y6W8: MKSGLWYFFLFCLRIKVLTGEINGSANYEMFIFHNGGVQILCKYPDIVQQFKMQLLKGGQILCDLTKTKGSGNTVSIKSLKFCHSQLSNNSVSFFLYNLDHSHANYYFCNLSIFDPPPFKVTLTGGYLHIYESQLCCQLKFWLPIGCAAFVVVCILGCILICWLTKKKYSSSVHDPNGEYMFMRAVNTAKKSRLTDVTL
UniProt P27986, residues 2-724: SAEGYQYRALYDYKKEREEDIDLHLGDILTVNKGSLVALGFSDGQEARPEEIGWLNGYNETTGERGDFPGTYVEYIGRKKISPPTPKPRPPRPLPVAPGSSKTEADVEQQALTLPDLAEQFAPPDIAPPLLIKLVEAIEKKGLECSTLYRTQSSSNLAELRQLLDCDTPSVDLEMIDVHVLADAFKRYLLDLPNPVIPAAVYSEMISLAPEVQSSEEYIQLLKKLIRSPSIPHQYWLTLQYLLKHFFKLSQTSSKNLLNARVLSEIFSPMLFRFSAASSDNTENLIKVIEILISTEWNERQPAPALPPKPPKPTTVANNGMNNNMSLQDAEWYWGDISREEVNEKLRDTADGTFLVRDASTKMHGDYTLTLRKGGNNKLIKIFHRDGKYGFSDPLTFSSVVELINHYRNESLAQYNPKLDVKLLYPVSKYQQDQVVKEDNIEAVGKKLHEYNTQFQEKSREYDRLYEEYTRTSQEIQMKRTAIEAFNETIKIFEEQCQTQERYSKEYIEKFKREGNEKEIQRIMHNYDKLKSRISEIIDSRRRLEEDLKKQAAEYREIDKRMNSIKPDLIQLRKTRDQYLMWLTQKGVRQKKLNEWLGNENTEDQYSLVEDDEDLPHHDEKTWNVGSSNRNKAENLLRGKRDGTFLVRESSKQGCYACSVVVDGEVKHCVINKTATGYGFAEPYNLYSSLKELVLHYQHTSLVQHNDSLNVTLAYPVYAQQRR

Assay [1] deals with WT ICOS (wild-type inducible T-cell costimulator, transfected into Jurkat JTAg T cells) (Homo sapiens (Human)) (UniProt Q9Y6W8). The assay can be described thus: co-IP (anti-ICOS IP, immunoblot), transfected Jurkat cells; binding to WT ICOS is implied by its loss in YF (FIG. 2b, 2c). A general note: Immunoblotting shows a protein as a band on a membrane.
Assay [2] addresses T1, FLAG-tagged WT TRAF2 (Homo sapiens (Human)) (UniProt Q12933).
T1 sequence: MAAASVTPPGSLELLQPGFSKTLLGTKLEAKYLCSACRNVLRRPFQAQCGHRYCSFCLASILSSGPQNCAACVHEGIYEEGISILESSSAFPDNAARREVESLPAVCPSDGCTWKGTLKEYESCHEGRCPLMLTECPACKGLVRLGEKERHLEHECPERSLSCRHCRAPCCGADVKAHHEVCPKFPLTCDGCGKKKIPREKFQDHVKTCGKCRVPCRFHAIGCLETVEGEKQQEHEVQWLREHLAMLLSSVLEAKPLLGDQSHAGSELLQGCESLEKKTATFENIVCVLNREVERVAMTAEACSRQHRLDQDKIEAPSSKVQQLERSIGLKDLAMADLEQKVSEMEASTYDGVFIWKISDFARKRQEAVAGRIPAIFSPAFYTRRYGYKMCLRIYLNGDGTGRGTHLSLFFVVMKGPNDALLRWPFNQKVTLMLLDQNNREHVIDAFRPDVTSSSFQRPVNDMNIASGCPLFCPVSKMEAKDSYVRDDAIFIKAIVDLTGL
As to the kind of experiment: anti-FLAG IP and immunoblot, transfected HEK293T cells (FIG. 6d).

Assay [3] concerns the target WT ICOS (wild-type inducible T-cell costimulator, transfected into Jurkat JTAg T cells) (Homo sapiens (Human)) (UniProt Q9Y6W8). The assay can be described thus: SILAC proteomics of anti-ICOS IPs from Jurkat cells.
Assay [4] shares this target. As to the kind of experiment: co-IP (anti-ICOS IP, immunoblot), transfected Jurkat cells stimulated with anti-CD3 plus anti-ICOS (FIG. 2b).
Assay [5] shares this target. As to the kind of experiment: co-IP and immunoblot, transfected Jurkat cells (legend of FIG. 2b).

Turning to “p85α, the regulatory subunit of PI3K, endogenous, Jurkat cells (from UniProt P27986 2-724)”, the binding result in assay [1] is “binds”.

B1: TANK-binding kinase 1 (TBK1), endogenous, human cell lines (Jurkat JTAg, HEK293T) (enzyme, UniProt Q9UHD2 1-729, looked up)
chain: MQSTSNHLWLLSDILGQGATANVFRGRHKKTGDLFAIKVFNNISFLRPVDVQMREFEVLKKLNHKNIVKLFAIEEETTTRHKVLIMEFCPCGSLYTVLEEPSNAYGLPESEFLIVLRDVVGGMNHLRENGIVHRDIKPGNIMRVIGEDGQSVYKLTDFGAARELEDDEQFVSLYGTEEYLHPDMYERAVLRKDHQKKYGATVDLWSIGVTFYHAATGSLPFRPFEGPRRNKEVMYKIITGKPSGAISGVQKAENGPIDWSGDMPVSCSLSRGLQVLLTPVLANILEADQEKCWGFDQFFAETSDILHRMVIHVFSLQQMTAHKIYIHSYNTATIFHELVYKQTKIISSNQELIYEGRRLVLEPGRLAQHFPKTTEENPIFVVSREPLNTIGLIYEKISLPKVHPRYDLDGDASMAKAITGVVCYACRIASTLLLYQELMRKGIRWLIELIKDDYNETVHKKTEVVITLDFCIRNIEKTVKVYEKLMKINLEAAELGEISDIHTKLLRLSSSQGTIETSLQDIDSRLSPGGSLADAWAHQEGTHPKDRNVEKLQVLLNCMTEIYYQFKKDKAERRLAYNEEQIHKFDKQKLYYHATKAMTHFTDECVKKYEAFLNKSEEWIRKMLHLRKQLLSLTNQCFDIEEEVSKYQEYTNELQETLPQKMFTASSGIKHTMTPIYPSSNTLVEMTLGMKKLKEEMEGVVKELAENNHILERFGSLTMDGGLRNVDCL
notes: Species follows from the human cell lines; also called endogenous TBK1
Turning to B1, the binding result in assay [2], in assay [3], in assay [4] and in assay [5] was “binds” in each case.

Source of the values: US20180369326A1 (LA JOLLA INSTITUTE FOR ALLERGY AND IMMUNOLOGY, published 2018).
